Data: PubChem BioAssay AID504834 (National Center for Advancing Translational Sciences (NCATS), 2011)
Values joined by “and” are separate entries in the source; they are usually repeats but may differ in a detail not shown here. Equal entries are not always repeated. Hit rate of the full screen: of about 320,000 compounds, about 22,000 (6.9%) were called active. The shares of active, inactive and inconclusive entries below differ from those in the screen. The call rests on the fitted dose curve; in most records, active means well fitted inhibition curve with a large enough effect; inconclusive means small, poorly fitted or top-dose-only effect, or another doubt; inactive means no such curve, though single readings can be large or run the other way. Potencies beside an inconclusive call are fits to weak or partial responses and may not hold up.

Assay: Primary qHTS for delayed death inhibitors of the malarial parasite plastid, 96 hour incubation
Conditions: P. falciparum luciferase reporter growth; series mostly up to 28.7 µM; activity change, negative = inhibition: at the top concentration
How it was run: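 Luminescence readout: decreased luciferase signal marks inhibited growth of reporter-expressing P. falciparum in infected red cells (2% hematocrit, 0.05% parasitemia final), exposed to compound two generations (96 h, 37 C, 5% CO2).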
On the % scale 0 is the no-effect control and ±100 the full control effect; potency means the concentration at half of the fitted maximal effect.

| SMILES | Potency | activity change, negative = inhibition |
| --- | --- | --- |
| Cc1sc(/N=C/c2c(O)ccc3ccccc23)c(C#N)c1C | inconclusive: 7.38 µM [inhibitor, partial curve, poor fit] | – |
| CCOC(=O)C1=C(CC)Nc2ccccc2N=C1NC(=O)Cn1cnc2ccccc2c1=O | inconclusive: 11.7 µM [inhibitor, partial curve, poor fit] | – |
| C/C(=N\NC(=O)CCCOc1ccc(Cl)cc1C)c1ccc(C)o1 | inconclusive: 0.0657 µM [inhibitor, full curve, poor fit] | – |
| COc1ccc(CCC(C)N2CCOCC2)cc1 (centres undefined) | – | inactive: -14% |
| COc1cc(C(=O)Nc2ccc(Oc3ncnc4sc(-c5ccccc5)cc34)cc2)cc(OC)c1OC | – | inactive: -5.2% |
| COC(=O)c1[nH]c2cc(OC)ccc2c1NC(=O)c1ccc2c(c1)OCO2 | inconclusive: 0.37 µM [inhibitor, partial curve, poor fit] | – |
| COC(=O)Nc1ccccc1C(=O)N1CCC(O)(c2ccc(Cl)cc2)CC1 | – | inactive: -27.1% |
| COc1ccccc1N1CCN(C2CC(=O)N(c3cccc(Cl)c3)C2=O)CC1 (centres undefined) | inconclusive: 3.7 µM [inhibitor, partial curve, poor fit] | – |
| COc1ccc2[nH]c(=O)cc(C(=O)O)c2c1 | inconclusive: 16.5 µM [inhibitor, single point] | – |
| COc1ccc(C(=O)N2C[C@H]3C[C@@H](C2)c2cccc(=O)n2C3)cc1OC | – | inactive: 0.0489% |
| Cc1cc(C(=O)Nc2cccc(C(=O)O)c2)oc1C | – | inactive: 46.9% |
| COc1ccc(CCNC(=O)c2cc3c(cc2Cl)N2CCCCCC2=NS3(=O)=O)cc1 | – | inactive: -17.2% |
| COc1ccc(-c2[nH]ncc2Oc2ccccc2OC)c(O)c1 | – | inactive: -13.5% |
| COc1ccc(CN(CCN(C)C)c2ncccn2)cc1 | inconclusive: 10.7 µM [inhibitor, partial curve, poor fit] | – |
| CC(C)(C)C1=CC=C(C(C)(C)C)C(=O)C1=O | inconclusive: 4.15 µM [inhibitor, single point] | – |
| Cc1ccc(-c2nc3ccccc3c(=O)n2-c2ncccc2C)cc1 | inconclusive: 18.5 µM [inhibitor, single point] | – |
| COc1ccc(C(=O)OCC(=O)NC(=O)NC(C)C)cc1OC | – | inactive: 1.44% |
| CCn1c(SCc2ccccc2)nnc1-c1cccs1 | inconclusive: 13.1 µM [inhibitor, single point] | – |
| Cc1ccc(S(=O)(=O)N2[C@@H](c3ccccc3F)C(C(=O)O)=CC[C@H]2c2cccs2)cc1 | inconclusive: 10.4 µM [inhibitor, single point] | – |
| COc1cc(C2CC(=O)N3CN(c4ccccc4C)CSC3=C2C#N)cc(OC)c1OC (centres undefined) | inconclusive: 18.5 µM [inhibitor, single point] | – |
| CS(=O)(=O)Nc1nnc(CCc2ccccc2)s1 | inconclusive: 0.465 µM [inhibitor, partial curve, poor fit] | – |
| CCS(=O)(=O)c1nc(S(=O)(=O)c2ccc(C)cc2)c(N2CC(C)CC(C)C2)s1 (centres undefined) | inconclusive: 11.7 µM [inhibitor, single point] | – |
| COc1ccccc1-n1c(SCC(=O)O)nnc1-c1ccc(S(=O)(=O)N2CCCCC2)cc1 | active: 11.7 µM | – |

| SMILES | Potency | activity change, negative = inhibition |
| --- | --- | --- |
| Cc1ccc(NC(=O)CN(c2ccc(Cl)cc2)S(=O)(=O)c2cc([N+](=O)[O-])ccc2Cl)c(C)c1 | inconclusive: 10.4 µM [inhibitor, single point] | – |
| Cc1ccc(-n2c(=O)c3c4c(sc3n3c(=S)[nH]nc23)CCC4)cc1 | inconclusive: 10.4 µM [inhibitor, single point] | – |
| COc1cc2ccccc2cc1C(=O)Nc1ccc(C)cc1 | – | inactive: -17% |
| O=C(O)CCC(=O)N1CCc2cc(S(=O)(=O)Nc3ccc4c(c3)OCCO4)ccc21 | active: 13.1 µM | – |
| C/C(O)=C(\C#N)P(=O)(c1ccccc1)c1ccccc1 | inconclusive: 4.15 µM [inhibitor, partial curve, poor fit] | – |
| Cn1c2c(c(=O)c3ccccc31)CCC(C)(C)O2 | – | inactive: -5.29% |
| Cc1ccc2[nH]c3c(c2c1)CN(C(=O)CN1c2ccc(F)cc2CCC1C)CC3 (centres undefined) | active: 13.1 µM | – |
| O=C(COC(=O)c1nc(Cl)ccc1Cl)NC1CCS(=O)(=O)C1 (centres undefined) | – | inactive: -14.5% |
| Cc1cccc(COc2ccc(/C=N/NC(=O)c3nnn(-c4nonc4N)c3C)cc2)c1 | – | inactive: -8.61% |
| CN(C)CCC=C1c2ccccc2C(C)(C)c2ccccc21 | active: 6.75 µM | – |
| COc1ccc(OC)c(CNC(=O)C(C)n2nc(C)c3c(C)n(-c4ccccc4)nc3c2=O)c1 (centres undefined) | inconclusive: 18.5 µM [inhibitor, single point] | – |
| CC(C)c1ncc(C(O)c2cccc3ccccc23)n1C (centres undefined) | inconclusive: 18.5 µM [inhibitor, single point] | – |
| COc1ccccc1CNC(=O)CN1CCC(n2cnc3cc(F)ccc32)CC1 | – | inactive: 45.9% |
| CCN1C(=NCCCCO)N[C@@H](c2cccc(F)c2)C(C(=O)OC)=C1C | inactive and inconclusive: 18.5 µM [inhibitor, single point] | – |
| CCCN1C(=O)/C(=C/c2ccc(C)o2)NC1=S | inconclusive: 5.86 µM [inhibitor, partial curve, poor fit] | – |
| Cc1cccc(CN2CCN(Cc3cnn(-c4ccccc4F)c3)CC2CCO)n1 (centres undefined) | inconclusive: 10.4 µM [inhibitor, single point] | – |
| CCc1ccc(-c2csc3ncn(Cc4ccc(C(=O)O)cc4)c(=O)c23)cc1 | – | inactive: 47.9% [at 5.75 µM] |
| COc1ccc([N+](=O)[O-])cc1NC(=O)Nc1ccc(OC)c(OC)c1 | – | inactive: 19% [at 5.75 µM] |
| O=C(Nc1ccc2c(c1)OCCO2)c1cncc(Br)c1 | – | inactive: 57.4% |
| COc1ccccc1CNC(=O)C(NC(=O)c1ccc(C)cc1)C(C)C (centres undefined) | inconclusive: 11.7 µM [inhibitor, single point] | – |
| O=C(NCc1ccccn1)c1cc(-c2ccc(-c3ccccc3)cc2)nc2ccccc12 | inconclusive: 16.5 µM [inhibitor, single point] | – |
| CCOc1ccccc1NC(=O)c1oc2ccccc2c1NC(=O)C1CC1 | inconclusive: 0.0738 µM [inhibitor, full curve, poor fit] | – |
| CCCn1cnnc1CNC(=O)C1CCC(=O)N(CCCc2ccccc2)C1 (centres undefined) | inconclusive: 13.1 µM [inhibitor, partial curve, poor fit] | – |

| SMILES | Potency | activity change, negative = inhibition |
| --- | --- | --- |
| C#CCOCCOCCOCCNc1nc(N2CCN(C(=O)[C@H](CCC(=O)O)n3cc(C(N)CO)nn3)CC2)nc(N2CCN(C(=O)[C@H](CCCCN)n3cc(C(N)CC(C)C)nn3)CC2)n1 (some centres undefined) | – | inactive: 79.2% |
| O=C(OCCN1C(=O)c2ccccc2C1=O)c1ccco1 | inconclusive: 18.5 µM [inhibitor, single point] | – |
| O=C(NCc1ccccc1)c1onc(CSc2ccc(F)cc2)c1C(=O)NCCCN1CCOCC1 | inconclusive: 2.94 µM [inhibitor, full curve] | – |
| COc1ccc(S(=O)(=O)NC2CCCCC2)cc1C(=O)N1CCCCC1 | inconclusive: 18.5 µM [inhibitor, single point] | – |
| CN1C(=O)C(C)(C)c2cc(S(=O)(=O)NCC(=O)NCc3ccccc3)ccc21 | inconclusive: 18.5 µM [inhibitor, single point] | – |
| COc1ccc(C(C)(C)C)cc1NC(=O)CCNC(=O)c1ccco1 | inconclusive: 13.1 µM [inhibitor, partial curve] | – |
| CC(/C=N/n1c(-c2ccc(Cl)cc2)n[nH]c1=S)=C\c1ccco1 | – | inactive: -8.59% |
| Cc1c(C(=O)N/N=C/c2ccccn2)nnn1-c1nonc1N | inconclusive: 13.1 µM [inhibitor, partial curve, poor fit] | – |
| CCC1Sc2ccc(S(=O)(=O)CCC(=O)Nc3cc(C)ccn3)cc2NC1=O (centres undefined) | – | inactive: -0.454% |
| Cc1cccc(-c2csc(N)c2C(=O)OC(C)C)c1 | inconclusive: 10.4 µM [inhibitor, partial curve, poor fit] | – |
| CNc1nc(C(=O)O)nc(N2CCOCC2)n1 | inconclusive: 5.22 µM [inhibitor, partial curve, poor fit] | – |
| Cc1ccccc1OCC(=O)NNC(=O)CCc1ccccc1 | inconclusive: 11.7 µM [inhibitor, single point] | – |
| COc1cc(NC(=O)c2ccc3c(SCC(=O)O)c4c(nc3c2)CCCC4)cc(OC)c1OC | inconclusive: 8.28 µM [inhibitor, partial curve, poor fit] | – |
| O=C(/C=C/c1ccco1)NC(=S)Nc1ccc(N2CCOCC2)c(Cl)c1 | – | inactive: 39.7% |
| COc1cccc(-c2cccc(NC(=O)C3CCN(Cc4ccon4)CC3)c2)c1 | inconclusive: 18.5 µM [inhibitor, single point] | – |
| O=C(COc1nsnc1N1CCOCC1)Nc1ccc(Br)cc1 | inconclusive: 7.38 µM [inhibitor, partial curve] | – |
| CCOc1ccc(OCC(=O)Nc2ccc(OC)cc2[N+](=O)[O-])cc1 | – | inactive: -5.55% |
| CCSc1nnc2c3cc(CC)ccc3n(C)c2n1 | inconclusive: 1.85 µM [inhibitor, single point] | – |
| CC(=O)Oc1ccc(/C=C/c2nc3ccccc3c(=O)o2)cc1 | active: 11.7 µM | – |
| COc1cccc(OCCCN2CCN(S(=O)(=O)c3ccc(NC(C)=O)cc3)CC2)c1 | inconclusive: 13.1 µM [inhibitor, partial curve, poor fit] | – |
| CC(C)(C)c1ccc(CN2C(=O)c3ccccc3S2(=O)=O)cc1 | – | inactive: 101% |
| COC(=O)c1cc(C(=O)c2cc(F)ccc2O)cn2c(=O)c3c(C)c(C)sc3nc12 | active: 2.62 µM | – |
| Cc1cc2c(c(=O)n1Cc1ccccc1)C1O[C@](c3ccsc3)(Cc3ccccc31)O2 | inconclusive: 4.26 µM [inhibitor, single point] | – |

Ordered by molecular weight (smallest number first): part of the list above.

| SMILES | Potency | activity change, negative = inhibition |
| --- | --- | --- |
| O=C(OCCN1C(=O)c2ccccc2C1=O)c1ccco1 | inconclusive: 18.5 µM [inhibitor, single point] | – |
| COc1cc2ccccc2cc1C(=O)Nc1ccc(C)cc1 | – | inactive: -17% |
| COc1ccc(C(C)(C)C)cc1NC(=O)CCNC(=O)c1ccco1 | inconclusive: 13.1 µM [inhibitor, partial curve] | – |
| CC(/C=N/n1c(-c2ccc(Cl)cc2)n[nH]c1=S)=C\c1ccco1 | – | inactive: -8.59% |
| CCOc1ccc(OCC(=O)Nc2ccc(OC)cc2[N+](=O)[O-])cc1 | – | inactive: -5.55% |
| C/C(=N\NC(=O)CCCOc1ccc(Cl)cc1C)c1ccc(C)o1 | inconclusive: 0.0657 µM [inhibitor, full curve, poor fit] | – |
| COc1ccccc1CNC(=O)C(NC(=O)c1ccc(C)cc1)C(C)C (centres undefined) | inconclusive: 11.7 µM [inhibitor, single point] | – |
| CCC1Sc2ccc(S(=O)(=O)CCC(=O)Nc3cc(C)ccn3)cc2NC1=O (centres undefined) | – | inactive: -0.454% |
| COC(=O)c1cc(C(=O)c2cc(F)ccc2O)cn2c(=O)c3c(C)c(C)sc3nc12 | active: 2.62 µM | – |
| Cc1cc2c(c(=O)n1Cc1ccccc1)C1O[C@](c3ccsc3)(Cc3ccccc31)O2 | inconclusive: 4.26 µM [inhibitor, single point] | – |
| COc1cc(C(=O)Nc2ccc(Oc3ncnc4sc(-c5ccccc5)cc34)cc2)cc(OC)c1OC | – | inactive: -5.2% |
| C#CCOCCOCCOCCNc1nc(N2CCN(C(=O)[C@H](CCC(=O)O)n3cc(C(N)CO)nn3)CC2)nc(N2CCN(C(=O)[C@H](CCCCN)n3cc(C(N)CC(C)C)nn3)CC2)n1 (some centres undefined) | – | inactive: 79.2% |
